The record followed here is publication PMC8058342.

The chains behind the UniProt entries cited, without tags or fusion partners. Where a name states a change or a piece, a line headed by the entry shows the natural chain unless it says otherwise. Residues count along the entry.
UniProt P20827, residues 19-182: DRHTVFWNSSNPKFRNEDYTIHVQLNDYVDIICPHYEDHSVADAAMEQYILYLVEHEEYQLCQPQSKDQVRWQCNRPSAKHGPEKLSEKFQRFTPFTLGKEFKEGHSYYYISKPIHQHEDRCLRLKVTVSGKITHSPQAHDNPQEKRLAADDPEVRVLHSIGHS
UniProt P29317: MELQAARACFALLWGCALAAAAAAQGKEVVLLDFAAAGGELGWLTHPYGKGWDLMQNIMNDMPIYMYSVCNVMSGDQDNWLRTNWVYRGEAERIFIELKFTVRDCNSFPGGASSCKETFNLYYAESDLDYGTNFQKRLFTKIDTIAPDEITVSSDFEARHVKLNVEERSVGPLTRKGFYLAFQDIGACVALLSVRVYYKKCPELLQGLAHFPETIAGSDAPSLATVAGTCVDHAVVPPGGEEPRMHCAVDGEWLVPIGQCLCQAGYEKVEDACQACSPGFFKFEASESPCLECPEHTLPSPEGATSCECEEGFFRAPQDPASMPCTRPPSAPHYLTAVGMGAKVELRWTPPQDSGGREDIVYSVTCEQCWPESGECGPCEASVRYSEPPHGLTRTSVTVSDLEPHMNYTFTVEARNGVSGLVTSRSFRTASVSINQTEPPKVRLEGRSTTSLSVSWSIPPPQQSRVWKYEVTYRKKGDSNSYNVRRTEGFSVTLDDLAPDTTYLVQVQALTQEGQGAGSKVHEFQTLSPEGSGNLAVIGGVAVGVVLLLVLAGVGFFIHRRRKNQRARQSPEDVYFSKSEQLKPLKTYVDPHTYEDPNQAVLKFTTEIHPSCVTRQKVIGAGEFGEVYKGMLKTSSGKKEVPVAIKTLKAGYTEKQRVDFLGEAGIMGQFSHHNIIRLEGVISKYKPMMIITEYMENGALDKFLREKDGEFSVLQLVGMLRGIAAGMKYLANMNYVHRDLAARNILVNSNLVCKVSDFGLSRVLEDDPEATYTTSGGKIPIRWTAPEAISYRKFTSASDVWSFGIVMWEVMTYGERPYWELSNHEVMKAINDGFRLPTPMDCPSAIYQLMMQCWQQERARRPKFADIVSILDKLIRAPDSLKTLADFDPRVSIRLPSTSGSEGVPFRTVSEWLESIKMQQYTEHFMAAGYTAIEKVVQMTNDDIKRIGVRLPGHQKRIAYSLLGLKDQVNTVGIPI

These are yes or no findings as the source states them, for the method shown. In cells and extracts the contact can be indirect. Binding calls can cover weak binding; strength is not graded here.

This assay deals with Flag-tagged Ephrin A1 (human) (UniProt P20827). Nature of the assay: co-IP; Flag-Ephrin A1 co-transfected with mCherry-EphA2 or mutants in HEK-293T; lysis in 40 mM Tris, 150 mM NaCl, 1% Triton X-100, 50 mM NaF, 5 mM Na3VO4, 2 mM EDTA; precipitated with anti-Flag antibody and protein A agarose, Western blot.

“mCherry-tagged EphA2-ΔS (deletion of the EphA2 SAM domain) (from UniProt P29317) (receptor)”: the binding entry is on record as “binds”.
